The source of these data is US20190029637A1, “A WEARABLE SENSOR, AND METHOD, TO MONITOR ANTI-COAGULATION THERAPY” (The Regents of the University of California, priority 2016, published 2019).

The nature of data set [1]: Photoacoustic imaging of methylene blue / heparin in buffer.
Data set [2] can be described thus: Photoacoustic imaging of heparin in methylene blue-doped whole human blood.
For data set [3] the following is noted: cited from earlier work.

Like-named read-outs stand apart in the source and are kept apart here.

Turning to heparin, the “increase in photoacoustic signal” value in data set [1] (6.4 U/mL heparin at 710 nm excitation) came out at 30 fold. Further, the “detection limit (photoacoustic signal vs heparin concentration)” value in data set [1] (buffer, heparin 0 to 6.4 U/mL) is reported as 14.2 mU/mL. The “detection limit of heparin” value in data set [2] (human blood with 0.8 mM methylene blue, n=3) came out at 0.28 U/mL.

As for low molecular weight heparin [LMWH], in data set [2] (methylene blue-doped human blood), the “lowest concentration of LMWH that could be detected in blood” value is 72 µg/mL.

Consider oversulfated chondroitin sulfate [OSCS], for which the “quantitation of OSCS in heparin” value is 0.1 wt % in data set [3] (1H-NMR) and 0.05 wt % in data set [3] (capillary electrophoresis (CE)). Further, the “LOD of OSCS in heparin” value was 0.03 wt % in data set [3] (SAX-HPLC), 0.003 wt % in data set [3] (colorimetric chemosensors), 0.1 wt % in data set [3] (heparin enzyme immunoassay) and 0.5 wt % in data set [3] (potentiometric assay).
